These are yes or no findings as the source states them, for the method shown. Binding seen in cells or lysates may run through a third protein. Binding calls can cover weak binding; strength is not graded here.
Key:
[1] = target: GST‐tagged FUS‐NTD (human) (UniProt P35637); test: pull-down; FUS-NTD-GST on Glutathione-Sepharose 4B with Raji cell extract; stringency washes, four times with extraction buffer containing 100, 150, 250, 500 or 1,000 mM NaCl, then one wash with 100 mM NaCl; immunoblot of what remained on the bait; only the target purified
[2] = target: GST‐tagged EWSR1‐NTD (human) (UniProt Q01844); test: pull-down; GST-tagged FET-NTD or FUS-NTD deletion mutant baits on Glutathione-Sepharose 4B incubated with Raji cell extract 2-4 h at 4°C; washed four times in 20 mM Tris pH 7.5, 0.5% NP-40, 100 mM NaCl, 2 mM MgCl2; immunoblot; only the target purified
[3] = target: GST‐tagged FUS‐NTD (human) (UniProt P35637); test: as above
[4] = target: GST‐tagged FUS‐NTD (human) (UniProt P35637); test: pull-down; FUS-NTD-GST on Glutathione-Sepharose 4B with Raji cell extract treated with 20 U/ml RNase ONE or 10 U/ml RQ1 DNase in modified extraction buffer (5 mM MgCl2, 5 mM MnCl2, 10 mM CaCl2); immunoblot; only the target purified

Protein sequences, listed by entry. Tags and fused reporters are not part of them. Lines headed by an entry give the natural chain unless they say otherwise; changes in a name come on top.
UniProt P35637: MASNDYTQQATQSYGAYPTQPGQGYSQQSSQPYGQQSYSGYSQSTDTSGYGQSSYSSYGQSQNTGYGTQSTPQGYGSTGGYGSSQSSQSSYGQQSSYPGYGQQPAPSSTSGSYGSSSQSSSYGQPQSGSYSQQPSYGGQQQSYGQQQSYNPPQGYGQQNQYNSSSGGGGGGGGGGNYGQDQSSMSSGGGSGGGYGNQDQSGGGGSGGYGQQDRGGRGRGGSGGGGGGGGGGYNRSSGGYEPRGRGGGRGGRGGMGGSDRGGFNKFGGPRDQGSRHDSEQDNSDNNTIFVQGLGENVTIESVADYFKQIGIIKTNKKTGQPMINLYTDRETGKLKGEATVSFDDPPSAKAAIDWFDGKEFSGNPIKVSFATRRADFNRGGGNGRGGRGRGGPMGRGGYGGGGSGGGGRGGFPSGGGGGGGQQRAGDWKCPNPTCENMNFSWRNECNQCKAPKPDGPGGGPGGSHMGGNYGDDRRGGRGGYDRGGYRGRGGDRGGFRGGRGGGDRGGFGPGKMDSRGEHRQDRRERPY
UniProt Q01844: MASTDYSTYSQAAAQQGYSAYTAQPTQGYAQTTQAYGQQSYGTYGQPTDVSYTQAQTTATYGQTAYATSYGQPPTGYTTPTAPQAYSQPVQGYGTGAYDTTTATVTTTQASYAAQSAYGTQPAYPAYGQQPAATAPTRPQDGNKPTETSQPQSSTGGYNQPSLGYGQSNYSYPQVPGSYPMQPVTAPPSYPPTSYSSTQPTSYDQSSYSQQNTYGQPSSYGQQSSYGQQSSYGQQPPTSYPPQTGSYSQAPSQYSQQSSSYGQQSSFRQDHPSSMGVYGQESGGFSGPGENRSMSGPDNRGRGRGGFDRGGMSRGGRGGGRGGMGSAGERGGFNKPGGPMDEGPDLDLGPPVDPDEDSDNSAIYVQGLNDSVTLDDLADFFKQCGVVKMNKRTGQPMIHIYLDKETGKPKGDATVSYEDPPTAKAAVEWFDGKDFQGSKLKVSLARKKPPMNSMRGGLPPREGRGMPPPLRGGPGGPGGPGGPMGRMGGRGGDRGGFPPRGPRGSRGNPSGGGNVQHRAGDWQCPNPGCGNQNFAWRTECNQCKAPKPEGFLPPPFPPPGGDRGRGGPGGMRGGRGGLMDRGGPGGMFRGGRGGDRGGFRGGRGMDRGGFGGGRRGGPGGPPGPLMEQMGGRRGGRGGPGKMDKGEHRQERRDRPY
UniProt Q96GM5: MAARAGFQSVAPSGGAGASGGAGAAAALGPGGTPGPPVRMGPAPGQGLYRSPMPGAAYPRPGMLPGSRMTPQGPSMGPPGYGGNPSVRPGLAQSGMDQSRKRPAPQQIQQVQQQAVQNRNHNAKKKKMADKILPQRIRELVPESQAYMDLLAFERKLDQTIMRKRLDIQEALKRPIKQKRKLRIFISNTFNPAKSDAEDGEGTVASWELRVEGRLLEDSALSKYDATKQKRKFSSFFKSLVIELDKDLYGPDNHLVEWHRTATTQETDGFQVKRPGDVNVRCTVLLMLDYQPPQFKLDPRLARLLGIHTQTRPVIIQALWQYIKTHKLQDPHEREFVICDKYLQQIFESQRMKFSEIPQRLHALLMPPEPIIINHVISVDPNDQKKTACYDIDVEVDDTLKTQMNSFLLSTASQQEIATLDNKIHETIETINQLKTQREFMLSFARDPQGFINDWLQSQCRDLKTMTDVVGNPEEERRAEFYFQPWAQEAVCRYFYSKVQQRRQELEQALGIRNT
UniProt Q92922: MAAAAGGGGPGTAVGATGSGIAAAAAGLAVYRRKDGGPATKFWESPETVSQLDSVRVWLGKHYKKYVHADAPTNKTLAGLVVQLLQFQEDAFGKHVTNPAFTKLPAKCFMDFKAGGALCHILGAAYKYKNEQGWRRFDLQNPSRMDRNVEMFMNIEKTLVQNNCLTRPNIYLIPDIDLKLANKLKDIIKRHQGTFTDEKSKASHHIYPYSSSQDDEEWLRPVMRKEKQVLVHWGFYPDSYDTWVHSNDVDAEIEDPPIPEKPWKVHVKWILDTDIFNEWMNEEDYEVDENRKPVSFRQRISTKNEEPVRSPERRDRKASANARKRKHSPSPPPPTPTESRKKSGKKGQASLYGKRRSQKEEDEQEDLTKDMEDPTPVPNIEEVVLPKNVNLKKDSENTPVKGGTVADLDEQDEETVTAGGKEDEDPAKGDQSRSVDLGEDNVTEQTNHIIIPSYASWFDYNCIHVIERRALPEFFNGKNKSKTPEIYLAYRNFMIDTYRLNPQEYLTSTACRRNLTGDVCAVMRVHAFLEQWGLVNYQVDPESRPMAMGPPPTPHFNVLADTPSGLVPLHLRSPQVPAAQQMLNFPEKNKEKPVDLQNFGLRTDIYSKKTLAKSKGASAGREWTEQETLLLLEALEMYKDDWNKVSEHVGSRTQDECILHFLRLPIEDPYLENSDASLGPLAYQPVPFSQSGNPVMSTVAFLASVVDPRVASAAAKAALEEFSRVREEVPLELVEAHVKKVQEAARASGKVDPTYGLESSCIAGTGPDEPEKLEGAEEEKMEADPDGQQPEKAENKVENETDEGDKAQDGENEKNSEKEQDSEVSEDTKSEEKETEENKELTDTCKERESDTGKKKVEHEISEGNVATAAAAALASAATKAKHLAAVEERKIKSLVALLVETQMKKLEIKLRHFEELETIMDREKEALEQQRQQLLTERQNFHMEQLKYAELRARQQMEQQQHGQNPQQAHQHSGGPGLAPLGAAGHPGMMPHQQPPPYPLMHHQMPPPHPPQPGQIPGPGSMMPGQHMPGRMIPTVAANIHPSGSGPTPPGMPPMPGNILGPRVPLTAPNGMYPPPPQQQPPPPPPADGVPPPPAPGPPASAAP
UniProt Q12824: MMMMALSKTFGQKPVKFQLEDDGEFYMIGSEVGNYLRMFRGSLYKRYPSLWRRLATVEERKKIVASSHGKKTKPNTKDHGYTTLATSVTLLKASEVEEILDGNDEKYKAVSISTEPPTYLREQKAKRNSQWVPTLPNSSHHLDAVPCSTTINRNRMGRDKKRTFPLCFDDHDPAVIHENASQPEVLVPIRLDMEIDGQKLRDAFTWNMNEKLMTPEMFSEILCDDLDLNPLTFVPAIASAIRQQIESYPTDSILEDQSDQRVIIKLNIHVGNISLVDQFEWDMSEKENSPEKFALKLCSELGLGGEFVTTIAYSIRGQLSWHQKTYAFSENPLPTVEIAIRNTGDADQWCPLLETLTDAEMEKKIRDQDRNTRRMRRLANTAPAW
UniProt Q8TAQ2: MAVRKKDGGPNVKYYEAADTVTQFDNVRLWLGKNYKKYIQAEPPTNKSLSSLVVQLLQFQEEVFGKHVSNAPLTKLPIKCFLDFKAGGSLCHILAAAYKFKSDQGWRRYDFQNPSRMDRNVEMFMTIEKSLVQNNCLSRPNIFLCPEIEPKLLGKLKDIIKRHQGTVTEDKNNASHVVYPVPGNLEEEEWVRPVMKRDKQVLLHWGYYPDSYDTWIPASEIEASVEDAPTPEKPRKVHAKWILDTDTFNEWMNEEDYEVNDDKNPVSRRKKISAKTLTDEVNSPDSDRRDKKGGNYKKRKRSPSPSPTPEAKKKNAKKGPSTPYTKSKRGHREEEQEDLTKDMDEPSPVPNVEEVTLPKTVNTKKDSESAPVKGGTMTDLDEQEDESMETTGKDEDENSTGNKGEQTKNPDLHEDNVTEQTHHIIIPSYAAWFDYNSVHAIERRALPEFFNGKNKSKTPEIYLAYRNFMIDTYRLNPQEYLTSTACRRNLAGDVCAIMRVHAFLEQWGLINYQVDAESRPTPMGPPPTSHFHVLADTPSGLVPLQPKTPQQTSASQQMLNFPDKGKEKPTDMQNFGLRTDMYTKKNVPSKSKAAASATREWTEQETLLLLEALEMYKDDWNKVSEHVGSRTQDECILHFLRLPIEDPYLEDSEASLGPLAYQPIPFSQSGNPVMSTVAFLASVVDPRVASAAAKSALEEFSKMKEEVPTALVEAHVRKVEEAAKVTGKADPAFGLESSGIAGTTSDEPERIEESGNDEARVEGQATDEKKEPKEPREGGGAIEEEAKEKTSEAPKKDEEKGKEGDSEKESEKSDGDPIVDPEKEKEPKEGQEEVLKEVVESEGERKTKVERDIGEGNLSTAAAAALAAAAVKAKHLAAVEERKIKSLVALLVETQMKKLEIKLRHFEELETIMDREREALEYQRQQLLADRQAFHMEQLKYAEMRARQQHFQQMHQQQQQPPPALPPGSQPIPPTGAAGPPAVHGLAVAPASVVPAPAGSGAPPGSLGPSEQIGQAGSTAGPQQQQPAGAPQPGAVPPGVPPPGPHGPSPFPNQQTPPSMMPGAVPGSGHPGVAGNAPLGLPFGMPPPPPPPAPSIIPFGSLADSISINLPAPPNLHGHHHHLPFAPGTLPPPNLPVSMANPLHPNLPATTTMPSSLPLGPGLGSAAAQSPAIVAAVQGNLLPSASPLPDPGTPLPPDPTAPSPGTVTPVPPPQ
UniProt P51532: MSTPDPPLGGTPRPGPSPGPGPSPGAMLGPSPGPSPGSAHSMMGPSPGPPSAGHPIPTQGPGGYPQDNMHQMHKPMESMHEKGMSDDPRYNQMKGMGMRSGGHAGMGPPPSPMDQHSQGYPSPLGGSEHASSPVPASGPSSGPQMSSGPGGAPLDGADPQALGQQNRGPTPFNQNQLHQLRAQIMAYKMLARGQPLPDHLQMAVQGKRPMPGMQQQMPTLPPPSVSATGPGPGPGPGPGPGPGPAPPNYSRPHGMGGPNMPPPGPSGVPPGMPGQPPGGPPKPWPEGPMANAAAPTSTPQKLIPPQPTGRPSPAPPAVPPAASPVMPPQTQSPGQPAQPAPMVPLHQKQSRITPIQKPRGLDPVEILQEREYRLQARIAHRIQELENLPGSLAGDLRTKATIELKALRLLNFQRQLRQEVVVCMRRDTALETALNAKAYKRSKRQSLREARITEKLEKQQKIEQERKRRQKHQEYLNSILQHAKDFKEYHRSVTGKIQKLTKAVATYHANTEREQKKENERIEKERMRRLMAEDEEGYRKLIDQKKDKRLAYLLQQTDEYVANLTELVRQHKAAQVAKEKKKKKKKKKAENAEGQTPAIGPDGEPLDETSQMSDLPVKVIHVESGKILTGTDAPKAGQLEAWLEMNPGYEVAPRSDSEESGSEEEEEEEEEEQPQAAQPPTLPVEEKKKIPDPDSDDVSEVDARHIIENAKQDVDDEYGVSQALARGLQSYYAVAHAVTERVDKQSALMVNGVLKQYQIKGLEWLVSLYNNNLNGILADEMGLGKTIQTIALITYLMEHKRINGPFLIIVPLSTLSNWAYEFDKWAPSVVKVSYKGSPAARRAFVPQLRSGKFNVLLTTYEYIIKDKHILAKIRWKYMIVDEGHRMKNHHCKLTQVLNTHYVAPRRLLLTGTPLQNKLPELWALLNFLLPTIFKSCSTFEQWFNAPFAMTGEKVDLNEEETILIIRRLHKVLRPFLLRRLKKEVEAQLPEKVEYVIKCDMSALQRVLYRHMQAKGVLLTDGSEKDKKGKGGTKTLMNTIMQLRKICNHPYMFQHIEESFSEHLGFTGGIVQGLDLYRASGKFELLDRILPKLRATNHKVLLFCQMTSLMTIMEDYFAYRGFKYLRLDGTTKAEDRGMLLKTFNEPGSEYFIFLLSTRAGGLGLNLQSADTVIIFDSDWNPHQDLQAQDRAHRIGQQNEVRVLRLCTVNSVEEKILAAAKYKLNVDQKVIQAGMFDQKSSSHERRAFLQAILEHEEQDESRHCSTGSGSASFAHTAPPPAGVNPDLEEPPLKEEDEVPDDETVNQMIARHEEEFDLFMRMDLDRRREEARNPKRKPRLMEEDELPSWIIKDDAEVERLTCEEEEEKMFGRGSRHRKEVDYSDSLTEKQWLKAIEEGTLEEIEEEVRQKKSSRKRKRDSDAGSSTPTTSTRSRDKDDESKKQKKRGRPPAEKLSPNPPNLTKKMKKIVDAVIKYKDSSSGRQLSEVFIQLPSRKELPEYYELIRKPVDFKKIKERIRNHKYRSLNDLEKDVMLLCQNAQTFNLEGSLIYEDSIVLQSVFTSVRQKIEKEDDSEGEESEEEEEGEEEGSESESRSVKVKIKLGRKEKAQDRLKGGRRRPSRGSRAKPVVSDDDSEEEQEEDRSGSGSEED
UniProt Q15532: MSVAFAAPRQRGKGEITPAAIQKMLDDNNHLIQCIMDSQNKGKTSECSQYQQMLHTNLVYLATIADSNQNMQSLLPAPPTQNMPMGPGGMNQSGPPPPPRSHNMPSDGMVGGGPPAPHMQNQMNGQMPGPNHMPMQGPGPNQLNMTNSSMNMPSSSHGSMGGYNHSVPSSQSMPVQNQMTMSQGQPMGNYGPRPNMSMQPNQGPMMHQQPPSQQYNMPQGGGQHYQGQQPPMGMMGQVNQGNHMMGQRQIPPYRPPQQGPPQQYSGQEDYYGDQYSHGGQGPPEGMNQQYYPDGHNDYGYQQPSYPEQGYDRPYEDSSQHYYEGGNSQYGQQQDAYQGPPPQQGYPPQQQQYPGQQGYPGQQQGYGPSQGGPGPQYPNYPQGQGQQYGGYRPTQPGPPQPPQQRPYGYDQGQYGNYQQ

Row | Substance | binding [1] | binding [2] | binding [3] | binding [4]
1 | BAF60A (from UniProt Q96GM5 1-515) | binds | binds | binds | –
2 | BAF155 (from UniProt Q92922 1-1105) | binds | – | – | –
3 | EWSR1 (from UniProt Q01844 1-656) | binds | – | – | –

Now from value to substance:

Row | binding [1] | binding [2] | binding [3] | binding [4] | Substance
4 | binds | – | – | – | BAF47 (from UniProt Q12824 1-385)
5 | binds | – | – | – | BAF170 (from UniProt Q8TAQ2 1-1214)
6 | – | binds | binds | binds | BRG1 (from UniProt P51532 1-1647)
7 | binds | – | – | – | SS18 (from UniProt Q15532 1-418)
